Paper PMC7969623

T1: PRRT2-HA (full length PRoline Rich Transmembrane protein 2 with HA tag fused at C terminus) (UniProt E9PUL5)
T1 sequence: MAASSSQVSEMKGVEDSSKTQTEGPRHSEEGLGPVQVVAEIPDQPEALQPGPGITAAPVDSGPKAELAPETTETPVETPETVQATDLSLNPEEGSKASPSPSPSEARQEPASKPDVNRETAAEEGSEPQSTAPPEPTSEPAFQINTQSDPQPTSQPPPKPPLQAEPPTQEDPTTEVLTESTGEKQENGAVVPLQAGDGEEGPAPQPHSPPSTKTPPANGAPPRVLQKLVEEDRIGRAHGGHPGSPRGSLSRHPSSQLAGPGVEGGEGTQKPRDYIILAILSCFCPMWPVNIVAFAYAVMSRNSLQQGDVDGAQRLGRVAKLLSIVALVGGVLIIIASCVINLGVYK


What follows are binders tested against T1, PRRT2-HA (full length PRoline Rich Transmembrane protein 2 with HA tag fused at C terminus) (assay: affinity purification with mass spectrometry; PRRT2-HA or BAP-HA from COS-7 held on anti-HA agarose, washed, incubated overnight at 4 °C with total mouse brain extract in lysis buffer (1% Triton X-100, 150 mM NaCl, 50 mM Tris-HCl pH 7.4, 1 mM EDTA); eluted with HA peptide; bands between 95 and 130 kDa cut from the Coomassie gel, LC-MS/MS; only the target purified).

Row | Binder | binding
1 | Puromycin-sensitive aminopeptidase (protein, UniProt Q11011 1-920) MWLAAAVPSLARRLLLLGPPPPPLLLLLSRSSRRRRRLHSLGLAAMPEKRPFERLPAEVSPINYSLCLKPDLLDFTFEGKLEAAAQVRQATNQIVMNCADIDIITASYAPEGDEEIHATGFNYQNEDEKVTLSFPSTLQTGTGTLKIDFVGELNDKMKGFYRSRYTTPAGEVRYAAVTQFEATDARRAFPCWDEPAIKATFDISLVVPKDRVALSNMNVIDRKPYPDDENLVEVKFARTPVMSTYLVAFVVGEYDFVETRSKDGVCVRVYTPVGKAEQGKFALEVAAKTLPFYKDYFNVPYPLPKIDLIAIADFAAGAMENWGLVTYRETALLIDPKNSCSSSRQWVALVVGHELAHQWFGNLVTMEWWTHLWLNEGFASWIEYLCVDHCFPEYDIWTQFVSADYTRAQELDALDNSHPIEVSVGHPSEVDEIFDAISYSKGASVIRMLHDYIGDKDFKKGMNMYLTKFQQKNAATEDLWESLESASGKPIAAVMNTWTKQMGFPLIYVEAEQVEDDRVLKLSQKKFCASGPYGGEDCPQWMVPITISTSEDPNQAKLKILMDKPEMSVVLKNVKPDQWVKLNLGTVGFYRTQYSSAMLESLLPGIRDLSLPPVDRLGLQNDLFSLARAGIISTVEVLKVMEAFVNEPNYTVWSDLSCNLGILSTLLSHTDFYEEIQEFVKDVFSPIGERLGWDPKPGEGHLDALLRGLVLGKLGKAGHKATLEEARRRFKEHVEGKQILSADLRSPVYLTVLKHGDGATLDIMLKLHKQADMQEEKNRIERVLGATLSPELIQKVLTFALSEEVRPQDTVSVIGGVAGGSKHGRKAAWKFIKDNWEELHNRYQGGFLISRLIKLSVEGFAVDKMAGEVKAFFESHPAPSAERTIQQCCENILLNAAWLKRDADSIHQYLLQRKTSPPSV | binds
2 | Drebrin (protein, UniProt Q9QXS6 1-706) MAGVSFSGHRLELLAAYEEVIREESAADWALYTYEDGSDDLKLAASGEGGLQELSGHFENQKVMYGFCSVKDSQAALPKYVLINWVGEDVPDARKCACASHVAKVAEFFQGVDVIVNASSVEDIDAGAIGQRLSNGLARLSSPVLHRLRLREDENAEPVGTTYQKTDAAVEMKRINREQFWEQAKKEEELRKEEERKKALDARLRFEQERMEQERQEQEERERRYREREQQIEEHRRKQQSLEAEEAKRRLKEQSIFGDQRDEEEESQMKKSESEVEEAAAIIAQRPDNPREFFRQQERVASASGGSCDAPAPAPFNHRPGRPYCPFIKASDSGPSSSSSSSSSPPRTPFPYITCHRTPNLSSSLPCSHLDSHRRMAPTPIPTRSPSDSSTASTPIAEQIERALDEVTSSQPPPPPPPPPPTQEAQETTPSLDEELSKEAKVTAAPEVWAGCAAEPPQAQEPPLLQSSPLEDSMCTESPEQAALAAPAEPAASVTSVADVHAADTIETTTATTDTTIANNVTPAAASLIDLWPGNGEEASTLQAEPRVPTPPSGAEASLAEVPLLNEAAQEPLPPVGEGCANLLNFDELPEPPATFCDPEEEVGETLAASQVLTMPSALEEVDQVLEQELEPEPHLLTNGETTQKEGTQASEGYFSQSQEEEFAQSEEPCAKVPPPVFYNKPPEIDITCWDADPVPEEEEGFEGGD | binds

Second part, the binder after the results:

Row | binding | Binder
3 | binds | Exportin-2 (protein, UniProt Q9ERK4 1-971) MELSDANLQTLTEYLKKTLDPDPAIRRPAEKFLESVEGNQNYPLLLLTLLEKSQDNVIKVCASVTFKNYIKRNWRIVEDEPNKICEADRVAIKANIVHLMLSSPEQIQKQLSDAISIIGREDFPQKWPDLLTEMVNRFQSGDFHVINGVLRTAHSLFKRYRHEFKSNELWTEIKLVLDAFALPLTNLFKATIELCSTHANDASALRILFSSLILISKLFYSLNFQDLPEFFEDNMETWMNNFHTLLTLDNKLLQTDDEEEAGLLELLKSQICDNAALYAQKYDEEFQRYLPRFVTAIWNLLVTTGREVKYDLLVSNAIQFLASVCERPHYKNLFEDQNTLTSICEKVIVPNMEFRAADEEAFEDNSEEYIRRDLEGSDIDTRRRAACDLVRGLCKFFEGPVTGIFSGYVNSMLQEYAKNPSVNWKHKDAAIYLVTSLASKAQTQKHGITQANELVNLTEFFVNHILPDLKSNNVNEFPVLKADGIKYIMIFRNQVPKEHLLVSIPLLISHLEAESIVVHTYAAHALERLFTMRGSNNTTLFTAAEIAPFVEILLTNLFKALTLPGSSENEYIMKAIMRSFSLLQEAIIPYIPTLITQLTQKLLAVSKNPSKPHFNHYMFEAICLSIRITCKANPAAVVNFEEALFLVFTEILQNDVQEFIPYVFQVMSLLLETHKNDIPSSYMALFPHLLQPVLWERTGNIPALVRLLQAFLERGSSTIATAAADKIPGLLGVFQKLIASKANDHQGFYLLNSIIEHMPPESVDQYRKQIFILLFQRLQNSKTTKFIKSFLVFINLYCIKYGALALQEIFDGIQPKMFGMVLEKIIIPEIQKVSGNVEKKICAVGITKLLTECPPMMDTEYTKLWTPLLQSLIGLFELPEDDSIPDEEHFIDIEDTPGYQTAFSQLAFAGKKEHDPVGQMVNNPKIHLAQSLHKLSTACPGRVPSMVSTSLNAEALQYLQGYLQAASVTLL
4 | binds | dynamin 1 (protein, UniProt P39053 1-867) MGNRGMEDLIPLVNRLQDAFSAIGQNADLDLPQIAVVGGQSAGKSSVLENFVGRDFLPRGSGIVTRRPLVLQLVNSTTEYAEFLHCKGKKFTDFEEVRLEIEAETDRVTGTNKGISPVPINLRVYSPHVLNLTLVDLPGMTKVPVGDQPPDIEFQIRDMLMQFVTKENCLILAVSPANSDLANSDALKIAKEVDPQGQRTIGVITKLDLMDEGTDARDVLENKLLPLRRGYIGVVNRSQKDIDGKKDITAALAAERKFFLSHPSYRHLADRMGTPYLQKVLNQQLTNHIRDTLPGLRNKLQSQLLSIEKEVDEYKNFRPDDPARKTKALLQMVQQFAVDFEKRIEGSGDQIDTYELSGGARINRIFHERFPFELVKMEFDEKELRREISYAIKNIHGIRTGLFTPDMAFETIVKKQVKKIREPCLKCVDMVISELISTVRQCTKKLQQYPRLREEMERIVTTHIREREGRTKEQVMLLIDIELAYMNTNHEDFIGFANAQQRSNQMNKKKTSGNQDEILVIRKGWLTINNIGIMKGGSKEYWFVLTAENLSWYKDDEEKEKKYMLSVDNLKLRDVEKGFMSSKHIFALFNTEQRNVYKDYRQLELACETQEEVDSWKASFLRAGVYPERVGDKEKASETEENGSDSFMHSMDPQLERQVETIRNLVDSYMAIVNKTVRDLMPKTIMHLMINNTKEFIFSELLANLYSCGDQNTLMEESAEQAQRRDEMLRMYHALKEALSIIGDINTTTVSTPMPPPVDDSWLQVQSVPAGRRSPTSSPTPQRRAPAVPPARPGSRGPAPGPPPAGSALGGAPPVPSRPGASPDPFGPPPQVPSRPNRAPPGVPSLGAWRLNSPQGKHENRAGKARL

No constants are given. Whether binding was seen depends on the method and setting. In cells and extracts the contact can be indirect. Here binding means that the protein was enriched with, or labelled near, the bait; the list need not be complete. Sequences can lack the tags named with a protein.
